The target of the experiment is T1, SET8 tagged with Flag epitope (Ad-SET8) (UniProt Q9NQR1).
T1 sequence: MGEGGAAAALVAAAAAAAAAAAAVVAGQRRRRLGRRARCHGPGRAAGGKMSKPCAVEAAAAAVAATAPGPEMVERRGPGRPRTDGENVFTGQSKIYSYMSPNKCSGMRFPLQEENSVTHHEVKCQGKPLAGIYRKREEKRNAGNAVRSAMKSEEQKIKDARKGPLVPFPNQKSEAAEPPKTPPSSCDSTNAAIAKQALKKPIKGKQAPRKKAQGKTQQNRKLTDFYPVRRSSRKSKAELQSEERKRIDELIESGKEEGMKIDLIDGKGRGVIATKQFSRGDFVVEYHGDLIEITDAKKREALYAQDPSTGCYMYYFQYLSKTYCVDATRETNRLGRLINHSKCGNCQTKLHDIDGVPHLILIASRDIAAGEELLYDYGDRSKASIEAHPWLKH
Kind of experiment: affinity purification with mass spectrometry; 97H cells infected with Ad-GFP or Ad-SET8 (Flag); nuclear extracts immunoprecipitated with anti-FLAG M2 agarose; flag peptide; SDS-PAGE, silver staining; differential bands analysed by mass spectrometry.

Amino acid sequences for entries named in this document (tags omitted).
UniProt O43474: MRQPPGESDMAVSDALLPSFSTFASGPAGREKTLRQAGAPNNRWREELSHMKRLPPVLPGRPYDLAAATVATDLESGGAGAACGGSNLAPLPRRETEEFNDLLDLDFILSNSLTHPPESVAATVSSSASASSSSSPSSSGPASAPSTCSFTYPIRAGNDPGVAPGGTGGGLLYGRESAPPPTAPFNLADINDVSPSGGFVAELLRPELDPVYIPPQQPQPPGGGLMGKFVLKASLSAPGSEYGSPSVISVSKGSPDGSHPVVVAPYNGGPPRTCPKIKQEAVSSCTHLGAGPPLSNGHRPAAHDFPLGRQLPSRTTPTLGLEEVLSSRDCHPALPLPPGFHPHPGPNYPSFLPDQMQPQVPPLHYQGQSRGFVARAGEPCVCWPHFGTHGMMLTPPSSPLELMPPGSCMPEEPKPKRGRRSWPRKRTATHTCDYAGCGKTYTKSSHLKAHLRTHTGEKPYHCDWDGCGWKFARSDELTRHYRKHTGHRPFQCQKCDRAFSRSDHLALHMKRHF

These are yes or no findings as the source states them, for the method shown. In cells and extracts the contact can be indirect. A yes stands for co-enrichment or nearness to the bait. Other partners may have been found. Where a sequence is shown, tags or fusion partners need not be part of it.

Take “Krüppel-like factor 4 (KLF4), endogenous in HCC cells (from UniProt O43474 1-513)”: the binding entry was “binds”.

The record behind these values is PMC6450876.
